This note sets out measurements from article PMC10279913.

Chains of the proteins cited; added tags and fusions are not shown. Lines headed by an entry give the natural chain unless they say otherwise; changes in a name come on top.
UniProt Q9N536: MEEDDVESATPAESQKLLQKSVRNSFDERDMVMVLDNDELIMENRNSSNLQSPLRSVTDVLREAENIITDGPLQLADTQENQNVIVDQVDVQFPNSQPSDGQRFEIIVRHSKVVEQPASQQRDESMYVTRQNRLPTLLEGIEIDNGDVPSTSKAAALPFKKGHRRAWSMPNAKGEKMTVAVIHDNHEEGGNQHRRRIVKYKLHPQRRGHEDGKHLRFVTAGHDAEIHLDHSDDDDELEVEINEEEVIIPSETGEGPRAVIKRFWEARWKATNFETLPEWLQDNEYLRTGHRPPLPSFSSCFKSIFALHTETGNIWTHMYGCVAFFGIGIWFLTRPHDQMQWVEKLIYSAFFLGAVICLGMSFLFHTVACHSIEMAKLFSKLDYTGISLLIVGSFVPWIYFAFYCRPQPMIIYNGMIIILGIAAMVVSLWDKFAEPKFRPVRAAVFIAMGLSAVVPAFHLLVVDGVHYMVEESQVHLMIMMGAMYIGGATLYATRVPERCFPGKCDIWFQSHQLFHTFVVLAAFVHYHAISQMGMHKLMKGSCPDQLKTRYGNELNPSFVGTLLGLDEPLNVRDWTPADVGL

B1: Fatty acid–binding protein homolog 5 (protein, UniProt O01814 1-136)
chain: MSAEQFVGRWKLVESENFEDYLKEVGVGLLLRKAACAAKPTLEIKVNGNKWHVNQLSTFKNTTLEFTLGVEFDETTPDGRQFKSTITIEDGKVVHVQKRIKDSDHDSVITRWFEGEKLITTLQSGSVISRRAYIRE
B2: Very-long-chain 3-oxooacyl-coA reductase let-767 (enzyme, UniProt Q09517 1-316)
chain: MACQCFLVGAGYVALAAVAYRLLTIFSNILGPYVLLSPIDLKKRAGASWAVVTGATDGIGKAYAFELARRGFNVLLVSRTQSKLDETKKEILEKYSSIEVRTAAFDFTNAAPSAYKDLLATLNQVEIGVLINNVGMSYEYPDVLHKVDGGIERLANITTINTLPPTLLSAGILPQMVARKAGVIVNVGSSAGANQMALWAVYSATKKYVSWLTAILRKEYEHQGITVQTIAPMMVATKMSKVKRTSFFTPDGAVFAKSALNTVGNTSDTTGYITHQLQLELMDLIPTFIRDKILTNMSVGTRAAALRKKEREAKSQ
B3: Probable coatomer subunit gamma (protein, UniProt Q22498 1-870)
chain: MKTNKKDEETGGNVYAHLDKTSVLQEARAFNETPINARKCCFILSKLIYIIQQGESIGRTEATEAFFGVTKLWQSKDVSLRRMVYLAVKELAEVSDDVIIVTSSLTKDMTGREDLYRAAAIRALCKITDTGMLQTIERYMKQAIVDRNSAISSSAIVSSIHLMRKSSEVVRRWANEVQEAVSSDNHMVQYHALALLYQIRANDRLAVNKLVQKFSKNALRSPYAVCYLIRIATRCLVDDDQPDSSVFTFIESCLRHKSEMVVYEAARAIVSLPQTTPSEIQPAITALQMCCTSPKAAVRFAAVRTLNKVAMAHPNAVMSCNVDLEKFITDPNRSIATLAITTLLKTGAESSVERLMQQIAGFVNEISDEFKIVVVDAIRSLCSRYPRKHTVMMPFLAKMLRSDGSYDYKKAIVETIIAIIEENPDAKVAGLAHLCEFIEDCEHDNLSTRVLHLLGREAPKTPNPSSYIRFIYNRVILESTKVRAAAVTALAKFGAQCVDLRPSIQVLLKRCLLDSDDEVRDRATFYLKMLTEAAEGLIHNFILDGLQVSPSGLERSILDYLRSGSYSSPFDLRVVPVTQQALSQPEKRVPQLVEEEEKPKAPKVEPYAAQLAAIPQFAALGPVFKSSTRIALTESIAEYTVHMIKHTFANAMVLQFECKNTMNDQLLLDVSVELEDPDGEWETGNTVQIDKLPYGEVHSAFSLLEFPDSGAISGSLGAILKFKVMDVDPTSGEPDSDDTYEQTYVLEEVDVNVSDSVQGVAKSSFGSAWEALGDDATREETFQLSTVENIPDAVKKISEILGLVPCERSDRVPEGKTQHTVFLSGVFRGGYDVLSKATVAVDPNDNSIAMNIIIKSNEPLVADLVISAVV
B4: ELO-2 (enzyme, UniProt Q9XVQ9 1-274)
chain: MAAAQTSPAATLVDVLTKPWSLDQTDSYMSTFVPLSYKIMIGYLVTIYFGQKLMAHRKPFDLQNTLALWNFGFSLFSGIAAYKLIPELFGVFMKDGFVASYCQNENYYTDASTGFWGWAFVMSKAPELGDTMFLVLRKKPVIFMHWYHHALTFVYAVVTYSEHQAWARWSLALNLAVHTVMYFYFAVRALNIQTPRPVAKFITTIQIVQFVISCYIFGHLVFIKSADSVPGCAVSWNVLSIGGLMYISYLFLFAKFFYKAYIQKRSPTKTSKQE
B5: Serine hydroxymethyltransferase (enzyme, UniProt P50432 1-507)
chain: MFARIVSRRAATGLFAGASSQCKMADRQVHTPLAKVQRHKYTNNENILVDHVEKVDPEVFDIMKNEKKRQRRGLELIASENFTSKAVMDALGSAMCNKYSEGYPGARYYGGNEFIDQMELLCQKRALEVFGLDPAKWGVNVQPLSGSPANFAVYTAIVGSNGRIMGLDLPDGGHLTHGFFTPARKVSATSEFFQSLPYKVDPTTGLIDYDKLEQNAMLFRPKAIIAGVSCYARHLDYERFRKIATKAGAYLMSDMAHISGLVAAGLIPSPFEYSDVVTTTTHKSLRGPRGALIFYRKGVRSTNAKGVDTLYDLEEKINSAVFPGLQGGPHNHTIAGIAVALRQCLSEDFVQYGEQVLKNAKTLAERMKKHGYALATGGTDNHLLLVDLRPIGVEGARAEHVLDLAHIACNKNTCPGDVSALRPGGIRLGTPALTSRGFQEQDFEKVGDFIHEGVQIAKKYNAEAGKTLKDFKSFTETNEPFKKDVADLAKRVEEFSTKFEIPGNETF
B6: Coatomer subunit epsilon (protein, UniProt O62246 1-292)
chain: MADKLFSIRNYFFLGSYQSCIGEALKFSSKNEEEKQEKDVYLYRSYIAQGQAFIPLKEIPAATKSADLAAVRRYAEFRNNPAAKKKILAEVQEEVASRNIKSEIAAVLAATILNEADLSQDAFRAVSRFEGLEARASKVFILIKMNKRKLAIGEVKKMNQIDEDATLSQLANALVTSFGASGKVKDALYIYSEMSDKYGRTTDLEMHQAVVSILTQDYAAAEELLESALERDNKDADVLINSIVSAQLNEKDDDVVERFISQLKHEHPNHPWVIDFNEKEAEFDRVASDSRA
B7: Very-long-chain (3R)-3-hydroxyacyl-CoA dehydratase hpo-8 (enzyme, UniProt O17040 1-218)
chain: MSVQTYLVAYNVLQILGWSAILVKTVLGLANGLTWPQLYESVEFELKIFQTAAILEVIHAIVGLVRSPVGTTAMQVTSRVVLVWPILHLCSTARFSIGVPLLLVAWSVTEVIRYSFYALSVLKQPIPYFLLYLRYTLFYVLYPMGVSGELLTLFASLNEVDEKKILTLEMPNRLNMGISFWWVLIIAALSYIPGFPQLYFYMIGQRKKILGGGSKKKQ
B8: Probable coatomer subunit beta' (protein, UniProt Q20168 1-1000)
chain: MPLRLDVKRKLLARSDRVKCVDLHPVETWLLAALYNGNVHIWNYETQTLVKSFEVCDVPVRAAKFVPRKSWVVTGSDDMHIRVFNYNTLERVHQFEAHSDYLRSLVVHPTLPYVISSSDDMLVKMWDWDNKWAMKQSFEGHTHYVMQIAINPKDNNTFATASLDKTVKVWQFGSNVPNFTLEGHEKGVNCVDYYHGGEKPYIISGADDHLVKIWDYQNKTCVQTLDGHAQNVSSVCFHPELPLIITGSEDSTVRLWHANTYRLETTLNYGLERVWCIQAQKGANTIAIGYDEGSVTLKLGREEPAVSMDSSGKILWAKHSEIQQANLKTISTEESEAIQDGERLPLSVKDLGSSEIYPQTLAHSSNGRFVVACGDGEYIVYTAMALRNKDFGQGLEFVWAVDPNMFAVRESATNVKIKKNFKDHKSIRSDMVLEGISGGPLLALRSNNSLCFFDWESAVLVRRIEITSKSIYWSDNGEMVAICGDDSFYVLKYSAEAVANATEVTEDGIEDAFEVIGEQAEAVKTGFWIGDCFIFTTALNRINYYVGGEIVTIAHVDRPLYLLGYMAKESRVYAVDKDLNVISYKLLLSVLEYQTAVMRRDFDTADKVLTTIPKEQRTRVAHFLEKQGFKKQALAVSQDPDHKFDLSVALGDLKTAYDLALQSDSEEKWKALSNAATLKSELLLAGECLGRARDFGGLMLLATCAGSAPLLQKLADDSAAAESHNISFLSSLLLGDIDACLDKLISTGRLPEAAFLARTHAPSRVSSILELWKAKASGHSEKSSRKIGESLADPVKYENLFPGFTQSLKAESFVREISKIPVPASVRVPSAATRNIQEELDEAVASGAVSFTDDGQAVLKNAPRQTETQLKAPPPPSVARQPSPVRQPSPIREPSPIREPEPEEEEEQEEFDDDQQEVHVPANQESADAHGTSKTPDVVLETSRPDIVPPRGSAAPDLVSASSQQSAQDFQDDTQWSDEDFGDAENGDLNMDDLNLDEED
B9: Immunoglobulin domain and leucine-rich repeat–containing protein 2 (protein, UniProt P34595 21-773)
chain: QRNRSSSPSGFLDLQLEKCPQVLGCRCVRDSTRNIQCFSIDESKLLEIQKIYGSNIQRLELHNWQHDQLNFDIFAPFPQLEHIILRDGDLESLNGTVIHPTLKVLSIENSELTSSSEVCRLLSIFPKIQSLSLSKNYFEKFECDTSNTKLKILDLSQNRISHLEVPNTLRVLNVSRNRLTSFENISTKLTDLDISFNKLSLWPSFDDWKFPNLRSLSAIKLDLQTGFQLDAPLLNSLNIDGASLRYLNFHQILTPKLKKFSARYLTELRNIAGRLPSTVTDVAFTDTMLRTLPADFIPMSSTNHMQKVSFDFSTNQLLCDKCLLQWSLPVYAQTSIRKDCNLTREEIESASCKIGVVANDTGIQYGKYEKPTAISCFSYGVPSPKISWWRFRPAEKLGSYDPITDEISYTNVSETMKESYEIQSGGSLLIRSPNRSHVERYVCVVENEYGKDYGIYHFRLDYLDWYSYDVFNSVFWGGLATSLIVCLISFLLNITWILTRKSALWWIQRAERLSRVRKMVEAMEKYRVRQMESLHEKYTKRVQIVRDNYHQQVEALRVSYASQQEKFQNYKAAQVDAVHSHLDAMRDGYNNQLGRVREYGSKRAEQLWESYERQVNRMRTFSLQHRLKMMRQYKVKQRYVNKLLESLQATSPEVQLENEEKVRAALEIPDDLATIDGSMDTPSRLSRSSSFHSLPEYVIDEQGNVRPGIIPTNAPSIRFTTKPTTSSISNEASTSSPSSSGAHRSPDSPPEKR
B10: Dolichyl-diphosphooligosaccharide–protein glycosyltransferase 48-kDa subunit (protein, UniProt P45971 21-445)
chain: DRVLVLGETAAVKDTHSVFLNSVKERGHELTVRAADDSQLALFKHGQLIFDHLFILAPGVQVFGGSLSPSEISKFVDAGGNVLVAAGSNIGDALREIAAEHGFEFEEAGTSVIDHHNYDQTLDSGDHTTLVVGKDQLISAELIVGNSAKLHPVLFKGIGLVAGKTNNLALSIVRASGTAYSYDPKAVRATNPSIAGSRTLLVGGLQSRNNARIVFTGSSELFSNTFFSAKTNSVNPSVQGAQSGNADFATAITRWVMKESGVLRVKTVNHHKKGETVPPVEGYFITEDVVYTIEIEELKNGKWVPFQGKDVQLEFVRIDPFVRATLKNSNGRLSVAFKLPDVLGVFKFLVDYRRVGYTHLYDVQQVSVRPLWHTQYERFIRSAYPYYASSFSMMAGLVLFSIVYLYHKDTPVKGAKVLDSEKKKN
B11: Fatty acid–binding protein homolog 6 (protein, UniProt O01812 1-135)
chain: MSQEFVGRWKLIHSENFEEYMKEVGVGLITRKAAANLKPTLEIKVEGDLWYSNQYSTFKNTTLSFKLGQEFDETTPDGRTVKSVVNFENGKFIHIQKKIKDSDKESIITRWLEGDKLITTLESGSVVSRREYVRE
B12: Probable glutathione S-transferase 7 (enzyme, UniProt P91253 1-206)
chain: MVHYKVSYFPIRGAGEIARQILAYAGQDFEDNRIPKEEWPAVKPSTPFGQLPLLEVDGKVLAQSHAIARYLARQFGINGKCAWEEAQVNSVADQFKDYLNEVRPYFMVKMGFAEGDLDALAKDVFLPGFKKHYGFFANFLKSAGSGYLVGDSLTFVDLLVAQHTADLLAANAALLDEFPQFKAHQEKVHSNANIKKWLETRPVTPF
B13: DHS-3 (protein, UniProt A5JYX5 1-309)
chain: MPYVFLLSPQLEIASQWDGYYEKTFEVSDHVHKEIILKVSGQTVLITGSGSGLGRLMAFEFGKLGARLVLWDINEQGNKETLKELEAMGVEAKAYTVDLSEYKEINRTADLVKSEVGKVDILVNNAGIVTGKKLLQCPDELMVKTVSVNTNALFFTTKNFLPGMLESNKGHIVTIASMAGKCGVAGLVDYCASKHGAVGFNDSLASELYALKKDVKTTVVCPIYINTGMFDGIATKWPTLLPILSPEYVVDCIMEAVLTDRAFLAIPKFSYIFIALAGLLPTEVLNLYGDHFGITHSMDHFKGRQSRQA

No constants are given. Whether binding was seen depends on the method and setting. Binding seen in cells or lysates may run through a third protein. A yes stands for co-enrichment or nearness to the bait. Other partners may have been found.

In this assay the target is HA::PAQR-2 (C. elegans) (UniProt Q9N536). Put plainly: affinity purification with mass spectrometry; anti-HA immunoprecipitation (rabbit mAb C29F4 + protein A-agarose, 1 h, 4 °C) from lysates of whole worms carrying HA::PAQR-2; 25 mM Tris pH 7.5, 300 mM NaCl, 0.1% NP-40, no protease inhibitor; eluted with 0.2 M glycine pH 2.5; 2 IPs; control: worms without HA-tagged protein.
Take B1: the binding result is recorded as “binds”.
With B2 the entry was “binds”; with B3, “binds”.
Regarding B4, the binding result is recorded as “binds”.
On to B5, for which the binding entry is listed as “binds”.
For the molecule B6, the binding result was “binds”.
On to B7, for which the binding entry was “binds”.
For the molecule B8, the binding result was “binds”.
B9: the binding result is reported as “binds”.
As for B10, the binding result was “binds”.
Under B11 stands “binds”; under B12, “binds”; under B13, “binds”.
